Test results published in publication PMC4413655.
Results are given in words; binding and its absence hold for the method and conditions named. In cells and extracts the contact can be indirect. Binding calls can cover weak binding; strength is not graded here. For part of these data: Tags and fused reporters may be left off the sequences shown.

T1: IFIT3-STrEP-tag fusion protein (IFN-induced protein with tetratricopeptide repeats 3 fused at its C-end to the One-STrEP Tag) (human) (UniProt O14879)
T1 sequence: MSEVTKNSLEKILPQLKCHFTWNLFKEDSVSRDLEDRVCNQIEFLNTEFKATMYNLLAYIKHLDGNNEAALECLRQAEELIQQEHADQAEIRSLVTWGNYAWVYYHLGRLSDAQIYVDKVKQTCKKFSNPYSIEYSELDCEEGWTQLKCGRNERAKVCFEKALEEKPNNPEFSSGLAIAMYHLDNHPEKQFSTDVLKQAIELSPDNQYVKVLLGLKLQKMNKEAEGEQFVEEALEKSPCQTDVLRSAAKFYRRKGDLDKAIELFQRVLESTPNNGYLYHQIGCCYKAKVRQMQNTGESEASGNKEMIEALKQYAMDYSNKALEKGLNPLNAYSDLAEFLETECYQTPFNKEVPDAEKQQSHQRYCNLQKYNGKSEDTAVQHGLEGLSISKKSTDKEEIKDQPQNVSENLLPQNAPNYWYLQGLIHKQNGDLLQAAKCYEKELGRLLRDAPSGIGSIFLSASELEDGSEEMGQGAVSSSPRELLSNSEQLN


Assays:
[1] = target: T1, IFIT3-STrEP-tag fusion protein (IFN-induced protein with tetratricopeptide repeats 3 fused at its C-end to the One-STrEP Tag) (human); test: pull-down; One-STrEP affinity chromatography: lysate of L3.6pl cells transfected with pEXPR-IFIT3 bound on affinity columns, extensively washed, eluted with biotin buffer; fractions analysed by Western blot; empty-vector lysate as negative control
[2] = target: JNK (human (endogenous in L3.6pl)); test: co-IP; immunoprecipitation with anti-JNK and anti-STAT1 antibodies from L3.6pl lysate, Western blot with anti-IFIT3 antibody

Row | binding [1] | binding [2] | Molecule
1 | binds | – | JNK (human (endogenous in L3.6pl))
2 | no binding | – | Akt (human (endogenous in L3.6pl))
3 | – | binds | IFN-induced protein with tetratricopeptide repeats 3 (IFIT3) (protein, UniProt O14879 1-490) MSEVTKNSLEKILPQLKCHFTWNLFKEDSVSRDLEDRVCNQIEFLNTEFKATMYNLLAYIKHLDGNNEAALECLRQAEELIQQEHADQAEIRSLVTWGNYAWVYYHLGRLSDAQIYVDKVKQTCKKFSNPYSIEYSELDCEEGWTQLKCGRNERAKVCFEKALEEKPNNPEFSSGLAIAMYHLDNHPEKQFSTDVLKQAIELSPDNQYVKVLLGLKLQKMNKEAEGEQFVEEALEKSPCQTDVLRSAAKFYRRKGDLDKAIELFQRVLESTPNNGYLYHQIGCCYKAKVRQMQNTGESEASGNKEMIEALKQYAMDYSNKALEKGLNPLNAYSDLAEFLETECYQTPFNKEVPDAEKQQSHQRYCNLQKYNGKSEDTAVQHGLEGLSISKKSTDKEEIKDQPQNVSENLLPQNAPNYWYLQGLIHKQNGDLLQAAKCYEKELGRLLRDAPSGIGSIFLSASELEDGSEEMGQGAVSSSPRELLSNSEQLN
